Assay results taken from the supplement of paper PMC8007513.
This is one part of the list. Most values come without repeats; read them as rough.

test system: Saccharomyces cerevisiae BY4743; experiment: growth (OD600) with compound + IPBC relative to untreated control; higher = less growth inhibition; conditions: compound concentration: 133 uM; IPBC concentration: 0.5 ug/ml; 20 h
Description: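 NMCCC compounds (133 uM) combined with IPBC (0.5 ug/ml) against Saccharomyces cerevisiae BY4743 in YPD, 96-well plates. Growth was read as OD600 at 20 h and expressed as % of the untreated control. Single pass.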

SMILES	growth [%]
CCO/C(O)=C1\C(C)=NC2=C(C(=O)CC(C)(C)C2)C1c1cc(Cl)ccc1F (configuration not stated) + CCCCNC(=O)OCC#CI [3-iodo-2-propynyl butylcarbamate (IPBC)]	102
FC(F)(F)C/1=C/N(CC/2=C/C(=O)N/3\C=C(Br)/C=C\C3=N2)C(=O)/C=C1 + CCCCNC(=O)OCC#CI [3-iodo-2-propynyl butylcarbamate (IPBC)]	102
COc1ccc(C)cc1NC(=O)CC(C)(C(=O)O)c1ccccc1 (configuration not stated) + CCCCNC(=O)OCC#CI [3-iodo-2-propynyl butylcarbamate (IPBC)]	105
Cl\C1=C(\CCCC1)C(=O)NC2=CC=C(C=C2)N3CCOCC3 + CCCCNC(=O)OCC#CI [3-iodo-2-propynyl butylcarbamate (IPBC)]	102
CNC(=O)\C1=C(/NCC2=CC=CO2)C3=CC=CC=C3[S]1(=O)=O + CCCCNC(=O)OCC#CI [3-iodo-2-propynyl butylcarbamate (IPBC)]	99.9
Cc1c(Cl)cccc1NC(=O)CNC(=O)CCCc1nc(O)c2ccccc2n1 + CCCCNC(=O)OCC#CI [3-iodo-2-propynyl butylcarbamate (IPBC)]	97.1
CCc1ccc(CN(CC(=O)N2CCNCC2)S(=O)(=O)c2cc(C)c(C)cc2C)cc1 + CCCCNC(=O)OCC#CI [3-iodo-2-propynyl butylcarbamate (IPBC)]	4.08
CCN(CCNC(=O)CN1\N=C/C2=C(SC=C2)C1=O)C3=CC=CC=C3 + CCCCNC(=O)OCC#CI [3-iodo-2-propynyl butylcarbamate (IPBC)]	88.1
COc1cc(NCC(=O)N2CCC(C)Sc3ccccc32)c(OC)cc1Cl (configuration not stated) + CCCCNC(=O)OCC#CI [3-iodo-2-propynyl butylcarbamate (IPBC)]	97
N#CCCN(C(=O)COc1ccc(F)c(Cl)c1)c1ccc2c(c1)OCCO2 + CCCCNC(=O)OCC#CI [3-iodo-2-propynyl butylcarbamate (IPBC)]	98.2
Cn1ncc2c(SCCC(=O)Nc3ccccc3F)ncnc21 + CCCCNC(=O)OCC#CI [3-iodo-2-propynyl butylcarbamate (IPBC)]	92.6
CCc1c(C)nc2nc(NCc3cc(Br)ccc3OC)nn2c1O + CCCCNC(=O)OCC#CI [3-iodo-2-propynyl butylcarbamate (IPBC)]	95.2
CCOC(=O)N1CCN(C(=O)CN(c2ccccc2)S(=O)(=O)c2ccc(OCC)cc2)CC1 + CCCCNC(=O)OCC#CI [3-iodo-2-propynyl butylcarbamate (IPBC)]	94.4
CC(C)CCC(C)NC(=O)C1=CC2=C(C=C1Cl)N\3CCCCCC3=N/[S]2(=O)=O (configuration not stated) + CCCCNC(=O)OCC#CI [3-iodo-2-propynyl butylcarbamate (IPBC)]	107
CCOc1ccccc1NC(=O)NCc1c(C)nn(CC)c1C + CCCCNC(=O)OCC#CI [3-iodo-2-propynyl butylcarbamate (IPBC)]	88.9
CC(NC(=O)CN1\N=N/C2=CC=CC=C2C1=O)C3=CC=CC(=C3)Cl (configuration not stated) + CCCCNC(=O)OCC#CI [3-iodo-2-propynyl butylcarbamate (IPBC)]	107
CCN(CC(=O)NC1CCS(=O)(=O)C1)C(=O)c1ccc(-n2cncn2)cc1 (configuration not stated) + CCCCNC(=O)OCC#CI [3-iodo-2-propynyl butylcarbamate (IPBC)]	99.8

3 successive entries from above:
SMILES	growth [%]
CCOC(=O)N1CCN(C(=O)CN(c2ccccc2)S(=O)(=O)c2ccc(OCC)cc2)CC1 + CCCCNC(=O)OCC#CI [3-iodo-2-propynyl butylcarbamate (IPBC)]	94.4
CC(C)CCC(C)NC(=O)C1=CC2=C(C=C1Cl)N\3CCCCCC3=N/[S]2(=O)=O (configuration not stated) + CCCCNC(=O)OCC#CI [3-iodo-2-propynyl butylcarbamate (IPBC)]	107
CCOc1ccccc1NC(=O)NCc1c(C)nn(CC)c1C + CCCCNC(=O)OCC#CI [3-iodo-2-propynyl butylcarbamate (IPBC)]	88.9
